PubChem BioAssay AID1259254 | NCATS, 2017
Purpose: 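Gene knock-downs that lead to re-replication, shown by excess G2 DNA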 (primary screen). System: human HCT116 colorectal cancer cells. Knock-down reagent: single siRNA against human genes. Time to read-out: 3 days. Detection: 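Imaged Hoechst DNA stain sorts each cell into a cycle phase by DNA amount; per plate, G2 fraction set to 0% for non-targeting and 100% for GMNN siRNA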. Direction: G2 robust z-score and G2 cells, % of GMNN control: higher = more G2 cells, more excess DNA replication. Hit rule: 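An siRNA counts as active if its G2 robust z-score lies at least 5 MADs above the screen median; here such calls match roughly 38% of GMNN control or more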.
Shown is a random part of about 59,000 reagents. Over the whole deposit, about 1,550 (2.6%) got an active call. 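G2 share is only a proxy for re-replication; each gene was hit by three separate siRNAs, and active genes were retested.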 Entries without a mark were called inactive. The numbers tell different reagents against one gene apart. Further read-outs or replicates are left out here. Not stated in the record: the amount of reagent.

After knock-down of IP6K2 #1, the record shows G2 robust z-score -0.265; G2 cells, % of GMNN control 1.11. Against IP6K2 #2, the entry reads G2 robust z-score 3.48; G2 cells, % of GMNN control 27.5. For IP6K2 #3, the values are G2 robust z-score -1.13; G2 cells, % of GMNN control -5.01. Against UCN #1 the deposit lists G2 robust z-score 0.138; G2 cells, % of GMNN control 3.94. UCN #2 gave G2 robust z-score 1.73; G2 cells, % of GMNN control 15.1. UCN #3 showed G2 robust z-score 1.68; G2 cells, % of GMNN control 14.8.

Against RTP1 #1 the deposit lists G2 robust z-score -1.11; G2 cells, % of GMNN control -4.84. Silencing of RTP1 #2 came out at: G2 robust z-score -0.83; G2 cells, % of GMNN control -2.87. Knock-down of RTP1 #3 gave: G2 robust z-score 2.02; G2 cells, % of GMNN control 17.2. For TNFRSF25 #1, the values are G2 robust z-score 0.191; G2 cells, % of GMNN control 4.31. Against TNFRSF25 #2, the values are G2 robust z-score 1.51; G2 cells, % of GMNN control 13.6. After knock-down of TNFRSF25 #3, the screen gave G2 robust z-score -0.785; G2 cells, % of GMNN control -2.56.

Silencing of IL1RAP #1 came out at: G2 robust z-score 0.0811; G2 cells, % of GMNN control 3.54. Silencing of IL1RAP #2 resulted in: G2 robust z-score -0.186; G2 cells, % of GMNN control 1.66. After knock-down of IL1RAP #3, the record shows G2 robust z-score 0.763; G2 cells, % of GMNN control 8.33. Against FOXL2NB #1, the entry reads G2 robust z-score -0.514; G2 cells, % of GMNN control -0.649. With knock-down of FOXL2NB #2, the screen gave G2 robust z-score 0.0895; G2 cells, % of GMNN control 3.6. FOXL2NB #3 showed G2 robust z-score -0.291; G2 cells, % of GMNN control 0.917.

For LOC646484 (retired record) #1 the deposit lists G2 robust z-score 0.337; G2 cells, % of GMNN control 5.34. For LOC646484 (retired record) #2, the values are G2 robust z-score -0.343; G2 cells, % of GMNN control 0.552. LOC646484 (retired record) #3 scored G2 robust z-score -0.0905; G2 cells, % of GMNN control 2.33. Silencing of PNRC1 #1 resulted in: G2 robust z-score 1.99; G2 cells, % of GMNN control 17. PNRC1 #2 gave G2 robust z-score -0.53; G2 cells, % of GMNN control -0.764. PNRC1 #3 showed G2 robust z-score -0.592; G2 cells, % of GMNN control -1.2.

Silencing of NLGN4X #1 resulted in: G2 robust z-score 4.08; G2 cells, % of GMNN control 31.7. After knock-down of NLGN4X #2 the results were G2 robust z-score 0.612; G2 cells, % of GMNN control 7.27. For NLGN4X #3 the deposit lists G2 robust z-score -0.118; G2 cells, % of GMNN control 2.13. For CELF6 #1 the deposit lists G2 robust z-score 8.33 (active); G2 cells, % of GMNN control 61.5. After knock-down of CELF6 #2 the results were G2 robust z-score -0.954; G2 cells, % of GMNN control -3.74. CELF6 #3 scored G2 robust z-score -0.983; G2 cells, % of GMNN control -3.95.

A portion taken from the entries so far, for reference:
LOC646484 (retired record) #1 | G2 robust z-score = 0.337; G2 cells, % of GMNN control = 5.34
LOC646484 (retired record) #2 | G2 robust z-score = -0.343; G2 cells, % of GMNN control = 0.552
LOC646484 (retired record) #3 | G2 robust z-score = -0.0905; G2 cells, % of GMNN control = 2.33
PNRC1 #1 | G2 robust z-score = 1.99; G2 cells, % of GMNN control = 17
PNRC1 #2 | G2 robust z-score = -0.53; G2 cells, % of GMNN control = -0.764
